The results in this text go back to PMC5366945.

By UniProt entry, the sequences of proteins in these tests, tags left out.
UniProt Q14457: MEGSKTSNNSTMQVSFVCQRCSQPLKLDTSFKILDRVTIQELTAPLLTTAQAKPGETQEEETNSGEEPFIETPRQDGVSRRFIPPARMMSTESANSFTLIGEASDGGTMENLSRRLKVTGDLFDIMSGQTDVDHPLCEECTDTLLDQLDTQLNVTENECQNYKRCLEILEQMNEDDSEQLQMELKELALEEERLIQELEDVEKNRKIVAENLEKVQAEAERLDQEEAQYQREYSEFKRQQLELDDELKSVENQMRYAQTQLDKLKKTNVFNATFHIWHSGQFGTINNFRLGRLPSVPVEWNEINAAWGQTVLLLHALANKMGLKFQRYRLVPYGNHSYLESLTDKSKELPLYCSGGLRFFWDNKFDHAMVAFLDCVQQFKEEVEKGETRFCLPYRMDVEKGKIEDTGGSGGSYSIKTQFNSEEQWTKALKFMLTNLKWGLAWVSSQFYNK
UniProt O88597: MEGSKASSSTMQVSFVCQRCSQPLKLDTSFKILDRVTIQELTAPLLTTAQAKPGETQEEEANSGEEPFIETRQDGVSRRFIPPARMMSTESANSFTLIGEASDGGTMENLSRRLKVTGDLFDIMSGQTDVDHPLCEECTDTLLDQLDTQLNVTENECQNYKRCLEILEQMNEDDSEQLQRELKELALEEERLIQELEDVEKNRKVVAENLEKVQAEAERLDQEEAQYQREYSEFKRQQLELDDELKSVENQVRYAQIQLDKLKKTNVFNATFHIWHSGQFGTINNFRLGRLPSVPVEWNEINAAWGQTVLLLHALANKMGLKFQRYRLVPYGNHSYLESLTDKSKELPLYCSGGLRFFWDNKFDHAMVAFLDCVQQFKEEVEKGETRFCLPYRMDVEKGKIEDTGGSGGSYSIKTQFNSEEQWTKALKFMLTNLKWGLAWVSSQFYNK
UniProt Q02880: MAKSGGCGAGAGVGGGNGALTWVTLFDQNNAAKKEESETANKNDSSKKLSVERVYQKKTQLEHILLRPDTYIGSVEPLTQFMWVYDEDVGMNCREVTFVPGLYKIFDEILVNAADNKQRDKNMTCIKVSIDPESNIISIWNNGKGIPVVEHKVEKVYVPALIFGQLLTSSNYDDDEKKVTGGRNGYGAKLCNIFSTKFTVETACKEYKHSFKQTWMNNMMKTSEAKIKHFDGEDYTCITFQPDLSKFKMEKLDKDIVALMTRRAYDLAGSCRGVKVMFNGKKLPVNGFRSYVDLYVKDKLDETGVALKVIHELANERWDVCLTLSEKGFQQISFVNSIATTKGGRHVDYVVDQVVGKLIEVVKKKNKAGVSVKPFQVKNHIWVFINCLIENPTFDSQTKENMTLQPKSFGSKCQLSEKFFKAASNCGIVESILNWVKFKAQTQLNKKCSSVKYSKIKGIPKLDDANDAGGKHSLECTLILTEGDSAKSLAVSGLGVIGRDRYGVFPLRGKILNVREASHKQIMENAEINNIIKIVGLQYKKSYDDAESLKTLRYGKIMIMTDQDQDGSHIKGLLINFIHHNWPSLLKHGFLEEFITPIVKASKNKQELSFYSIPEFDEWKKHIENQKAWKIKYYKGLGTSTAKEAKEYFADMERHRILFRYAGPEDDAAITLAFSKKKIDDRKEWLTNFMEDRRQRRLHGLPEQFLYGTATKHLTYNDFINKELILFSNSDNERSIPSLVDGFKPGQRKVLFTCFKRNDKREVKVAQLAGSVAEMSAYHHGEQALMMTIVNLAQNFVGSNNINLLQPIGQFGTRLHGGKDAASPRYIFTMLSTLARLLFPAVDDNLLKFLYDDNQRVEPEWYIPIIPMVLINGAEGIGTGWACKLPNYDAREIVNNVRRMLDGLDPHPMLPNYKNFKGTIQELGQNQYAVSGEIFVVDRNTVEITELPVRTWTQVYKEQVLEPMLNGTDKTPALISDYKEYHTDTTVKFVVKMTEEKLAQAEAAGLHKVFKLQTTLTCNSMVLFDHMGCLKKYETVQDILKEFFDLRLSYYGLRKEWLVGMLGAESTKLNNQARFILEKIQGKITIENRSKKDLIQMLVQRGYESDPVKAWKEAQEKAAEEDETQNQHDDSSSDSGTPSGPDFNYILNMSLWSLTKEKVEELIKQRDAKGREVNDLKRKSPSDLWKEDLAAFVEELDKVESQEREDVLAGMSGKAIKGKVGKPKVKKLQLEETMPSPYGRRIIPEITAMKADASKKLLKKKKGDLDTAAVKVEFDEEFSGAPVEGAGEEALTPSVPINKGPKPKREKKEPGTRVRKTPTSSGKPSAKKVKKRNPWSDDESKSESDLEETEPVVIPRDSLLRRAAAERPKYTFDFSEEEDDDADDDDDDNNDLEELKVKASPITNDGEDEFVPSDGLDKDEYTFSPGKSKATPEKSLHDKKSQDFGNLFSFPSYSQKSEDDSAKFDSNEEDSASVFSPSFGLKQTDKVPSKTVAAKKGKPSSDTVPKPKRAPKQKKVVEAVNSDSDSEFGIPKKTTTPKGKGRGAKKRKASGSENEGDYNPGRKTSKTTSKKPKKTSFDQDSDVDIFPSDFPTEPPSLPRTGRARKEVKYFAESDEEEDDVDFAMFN
UniProt Q64511: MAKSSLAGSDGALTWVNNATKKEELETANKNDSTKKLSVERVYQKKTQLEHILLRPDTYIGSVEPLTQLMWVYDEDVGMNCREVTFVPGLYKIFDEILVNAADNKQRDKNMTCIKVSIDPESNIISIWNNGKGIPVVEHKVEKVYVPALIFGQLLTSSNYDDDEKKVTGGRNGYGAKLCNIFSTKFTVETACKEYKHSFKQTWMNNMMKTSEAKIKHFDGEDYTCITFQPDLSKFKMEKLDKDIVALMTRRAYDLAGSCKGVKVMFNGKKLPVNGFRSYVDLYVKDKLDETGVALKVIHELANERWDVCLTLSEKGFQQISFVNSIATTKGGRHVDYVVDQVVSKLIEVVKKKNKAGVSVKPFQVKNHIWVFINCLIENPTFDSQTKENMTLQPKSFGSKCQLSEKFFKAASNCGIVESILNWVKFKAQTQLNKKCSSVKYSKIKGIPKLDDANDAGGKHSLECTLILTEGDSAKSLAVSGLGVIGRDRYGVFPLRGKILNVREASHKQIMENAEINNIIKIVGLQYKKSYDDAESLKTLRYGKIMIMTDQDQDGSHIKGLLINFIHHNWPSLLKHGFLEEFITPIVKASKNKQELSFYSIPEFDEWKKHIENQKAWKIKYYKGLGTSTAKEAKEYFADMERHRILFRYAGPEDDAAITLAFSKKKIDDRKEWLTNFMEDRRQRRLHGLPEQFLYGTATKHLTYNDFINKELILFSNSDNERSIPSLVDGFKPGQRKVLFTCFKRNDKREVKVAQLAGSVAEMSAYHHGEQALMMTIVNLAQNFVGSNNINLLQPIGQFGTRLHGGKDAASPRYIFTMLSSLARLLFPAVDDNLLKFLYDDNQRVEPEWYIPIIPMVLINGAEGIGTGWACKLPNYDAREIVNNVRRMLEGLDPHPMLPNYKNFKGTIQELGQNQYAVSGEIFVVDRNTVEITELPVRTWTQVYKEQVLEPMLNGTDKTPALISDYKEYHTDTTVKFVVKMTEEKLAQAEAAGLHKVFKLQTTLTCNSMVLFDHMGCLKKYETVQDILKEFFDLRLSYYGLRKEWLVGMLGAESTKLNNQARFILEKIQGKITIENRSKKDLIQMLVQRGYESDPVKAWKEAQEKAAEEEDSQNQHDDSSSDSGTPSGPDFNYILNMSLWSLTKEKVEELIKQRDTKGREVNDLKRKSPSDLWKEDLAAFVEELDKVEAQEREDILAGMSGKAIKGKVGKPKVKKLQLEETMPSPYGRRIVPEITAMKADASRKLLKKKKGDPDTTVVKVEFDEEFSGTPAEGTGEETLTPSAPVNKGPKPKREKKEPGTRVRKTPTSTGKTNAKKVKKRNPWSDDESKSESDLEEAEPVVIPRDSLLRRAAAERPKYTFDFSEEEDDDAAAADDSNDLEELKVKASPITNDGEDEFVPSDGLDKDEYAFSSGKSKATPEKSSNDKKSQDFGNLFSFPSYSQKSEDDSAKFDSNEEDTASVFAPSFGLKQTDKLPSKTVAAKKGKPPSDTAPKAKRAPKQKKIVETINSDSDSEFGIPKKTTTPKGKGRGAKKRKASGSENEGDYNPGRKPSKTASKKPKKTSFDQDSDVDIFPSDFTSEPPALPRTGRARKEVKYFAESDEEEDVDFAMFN

These are yes or no findings as the source states them, for the method shown. In cells and extracts the contact can be indirect. Some results given as binding are weak or reduced against the parent protein; the word gives no strength.

In assay [1] the target is Beclin 1 (endogenous, HeLa) (human (endogenous in HeLa)) (UniProt Q14457). As to the kind of experiment: co-IP; endogenous proteins in HeLa cells treated with or without IR; co-immunoprecipitation and immunoblotting. For orientation: In western blotting, separated proteins are transferred to a membrane and probed.
The target in assay [2] is Flag-tagged Beclin 1 (overexpressed in 293T cells) (not stated (human or mouse cDNA cloned)) (UniProt Q14457). As to the kind of experiment: co-IP; 293T cells overexpressing Flag-tagged Beclin 1, treated with or without IR; immunoprecipitation, blot for DNA topoisomerase IIβ.
Assay [3] addresses Flag-tagged Beclin 1 (expressed in NIH3T3 cells) (not stated (human or mouse cDNA cloned)) (UniProt O88597). The assay is described as follows: co-IP; nuclear lysates of NIH3T3 cells stably expressing Flag-tagged Beclin 1 or vector; immunoprecipitation with anti-Flag antibodies, immunoblot.
Assay [4] shares this target. The assay is described as follows: co-IP; NIH3T3 cells overexpressing Flag-tagged Beclin 1, treated with or without IR; immunoprecipitation, blot for DNA topoisomerase IIβ.

Turning to “DNA topoisomerase IIβ (endogenous, HeLa) (from UniProt Q02880 1-1626)”, in assay [1], the binding entry is recorded as “binds”. For the substance “DNA topoisomerase IIβ (endogenous, 293T) (from UniProt Q02880 1-1626)”, the binding result in assay [2] is “binds”.

On to “DNA topoisomerase IIβ (endogenous, NIH3T3) (from UniProt Q64511 1-1612)”, for which the binding result in assay [3] and in assay [4] was “binds” in each case.
